Test results as given in publication PMC11700292, “Specific inhibition of fibroblast growth factor receptor 1 signaling by a DNA aptamer”.
Construct, isoform or probe ends are uncertain for at least one entry.

Tested on: FGFR1b extracellular domain-Fc + FGF1
Assay: BLI
Details: preformed FGF1:FGFR1b complex, 250 nM each; BLI (Octet K2, protein A sensor, FGFR-Fc 5 ug/mL), VZ23 31.25-500 nM in PBS (8.1 mM Na2HPO4, 1.5 mM NaH2PO4, 137 mM NaCl); recombinant protein; protein details: IgG1 Fc fusion; folded or branched DNA

GGGATACAGGGCTTTGTCTATGGTGTGGATGGCGGATACC [VZ23]
binding result: binds
